Laboratory results taken from PMC10991553.
No constants are given. Whether binding was seen depends on the method and setting. Some entries that bind do so weakly or less than the wild type. Where a sequence is shown, tags or fusion partners need not be part of it. Blank lines part the entries; values can stand above or below the binder they belong to.

Target: T1, Mre11 (His-tag at the C-terminus) (budding yeast) (UniProt P32829)
T1 sequence: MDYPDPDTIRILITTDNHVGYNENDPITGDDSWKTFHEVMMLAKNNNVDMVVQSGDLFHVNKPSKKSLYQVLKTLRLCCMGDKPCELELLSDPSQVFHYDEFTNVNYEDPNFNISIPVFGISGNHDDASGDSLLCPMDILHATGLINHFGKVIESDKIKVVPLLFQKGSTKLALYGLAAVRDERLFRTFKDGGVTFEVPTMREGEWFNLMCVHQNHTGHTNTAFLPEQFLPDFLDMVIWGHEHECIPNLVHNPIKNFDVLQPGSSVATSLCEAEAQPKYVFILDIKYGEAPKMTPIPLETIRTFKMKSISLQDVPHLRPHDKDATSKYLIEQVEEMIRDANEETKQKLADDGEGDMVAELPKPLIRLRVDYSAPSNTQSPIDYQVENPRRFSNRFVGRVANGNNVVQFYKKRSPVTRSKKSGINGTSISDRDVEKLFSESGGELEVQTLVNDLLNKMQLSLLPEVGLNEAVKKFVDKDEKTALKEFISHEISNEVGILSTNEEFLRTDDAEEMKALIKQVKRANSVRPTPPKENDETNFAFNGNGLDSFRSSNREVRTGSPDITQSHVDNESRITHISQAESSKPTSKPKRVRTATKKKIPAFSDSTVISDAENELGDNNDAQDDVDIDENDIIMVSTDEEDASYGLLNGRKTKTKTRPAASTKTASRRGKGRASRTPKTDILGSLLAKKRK
Assay: co-purification by affinity chromatography; Mre11-Rad50-Xrs2 co-expressed in Sf9 cells; NiNTA resin (His-tag on Mre11) followed by anti-FLAG M2 affinity resin (FLAG-tag on Xrs2)

binding: binds
B1: Rad50 (protein, UniProt P12753 1-1312)
chain: MSAIYKLSIQGIRSFDSNDRETIEFGKPLTLIVGMNGSGKTTIIECLKYATTGDLPPNSKGGVFIHDPKITGEKDIRAQVKLAFTSANGLNMIVTRNIQLLMKKTTTTFKTLEGQLVAINNSGDRSTLSTRSLELDAQVPLYLGVPKAILEYVIFCHQEDSLWPLSEPSNLKKKFDEIFQAMKFTKALDNLKSIKKDMSVDIKLLKQSVEHLKLDKDRSKAMKLNIHQLQTKIDQYNEEVSEIESQLNEITEKSDKLFKSNQDFQKILSKVENLKNTKLSISDQVKRLSNSIDILDLSKPDLQNLLANFSKVLMDKNNQLRDLETDISSLKDRQSSLQSLSNSLIRRQGELEAGKETYEKNRNHLSSLKEAFQHKFQGLSNIENSDMAQVNHEMSQFKAFISQDLTDTIDQFAKDIQLKETNLSDLIKSITVDSQNLEYNKKDRSKLIHDSEELAEKLKSFKSLSTQDSLNHELENLKTYKEKLQSWESENIIPKLNQKIEEKNNEMIILENQIEKFQDRIMKTNQQADLYAKLGLIKKSINTKLDELQKITEKLQNDSRIRQVFPLTQEFQRADLEMDFQKLFINMQKNIAINNKKMHELDRRYTNALYNLNTIEKDLQDNQKSKEKVIQLLSENLPEDCTIDEYNDVLEETELSYKTALENLKMHQTTLEFNRKALEIAERDSCCYLCSRKFENESFKSKLLQELKTKTDANFEKTLKDTVQNEKEYLHSLRLLEKHIITLNSINEKIDNSQKCLEKAKEETKTSKSKLDELEVDSTKLKDEKELAESEIRPLIEKFTYLEKELKDLENSSKTISEELSIYNTSEDGIQTVDELRDQQRKMNDSLRELRKTISDLQMEKDEKVRENSRMINLIKEKELTVSEIESSLTQKQNIDDSIRSKRENINDIDSRVKELEARIISLKNKKDEAQSVLDKVKNERDIQVRNKQKTVADINRLIDRFQTIYNEVVDFEAKGFDELQTTIKELELNKAQMLELKEQLDLKSNEVNEEKRKLADSNNEEKNLKQNLELIELKSQLQHIESEISRLDVQNAEAERDKYQEESLRLRTRFEKLSSENAGKLGEMKQLQNQIDSLTHQLRTDYKDIEKNYHKEWVELQTRSFVTDDIDVYSKALDSAIMKYHGLKMQDINRIIDELWKRTYSGTDIDTIKIRSDEVSSTVKGKSYNYRVVMYKQDVELDMRGRCSAGQKVLASIIIRLALSETFGANCGVIALDEPTTNLDEENIESLAKSLHNIINMRRHQKNFQLIVITHDEKFLGHMNAAAFTDHFFKVKRDDRQKSQIEWVDINRVTY

binding: binds
B2: Xrs2 (FLAG-tag at the C-terminus) (protein, UniProt P33301 1-854)
chain: MWVVRYQNTLEDGSISFISCCLQAFKTYSIGRSSKNPLIIKNDKSISRQHITFKWEINNSSDLKHSSLCLVNKGKLTSLNKKFMKVGETFTINASDVLKSTIIELGTTPIRIEFEWINEVWNIPPHLTQFRTMLSEYGISTEISINDIPANLMISDYPKSEDNSIRELYALVSTIPMKKSRFLMELCNTLLPTSKTNLKFDEMWNDMISNPEYNVFDFDPNILLSKFMRLNNIRVLTTIKSEPRLSSLLRTFNINLFAFDNIDSLYKYVDSLEASTEYLILTTTDKKENGKILCTIKTMLTSIIDGTLSAVINMKGASSRTLDNGKFDQISEGMSTILKTSRAPEVEASPVVSKKRKLNRRRVLPLDSLDFFAGGLSTKTLSENRSLTDAKRLNCGAESKTVISSPNIAEADEKHAPFLQNALKPTEDIGKKSGHSSPGAIIVSSPNLGTVNTSEDSLDKSLQSHKLPQPSLPEVAGIGSQTISSNSADYETAAVNSMDDAEVTKNFRVNHHQNIEQPSKNIRKLSNYSREISSPLQENCKSPVKELSIKEKSGTPHAFVEAIQETKNREVKRVKSTIVELKDEELSEEAINQLKNLAIVEPSNNLLRKSFDSEGNKTSRTTEKWENSLMEPEWHKRKNFKTFVKVRPKSKAHKEEGKNNTQSSDFIRNAAFLITRNYVPLKKYSKKDTTTKWGTEENEDMFALTEMERFGSNTFMSDNINSNTIQKRSQALNRFTNEDSSNEGEEDSFSFSRCSGTAASVQPLKNKIFITDEDDLGDIDDKSDRLNHRENNRNLFVVKEMNLRPNLSEECSKQSRHSRSATSRSRGSFGASNNGDGDDDDDDGPKFTFKRRKG
